Experimental data reported in paper PMC1948018 (Retrovirology, 2007).

Test system: HIV-1p256
Assay: microbe, parasite or virus in culture
Type: cell-based
Conditions: Human immunodeficiency virus 1, HeLa37, 40 h, read-out: IC50 of inhibition of HIV in HeLa 37 cells
Procedure: Short-term, single hit infectivity studies were performed as previously described. HeLa37 cells were plated in a 48-well tray and triplicate wells were infected with a dual-tropic HIV-1p256 and serial dilutions of P-TEFb inhibitor for 40 hours. The cells were fixed with 75% acetone/25% H2O and immunostained for HIV-1 antigens using human anti-HIV serum (a gift from Dr. Jack Stapleton, Univ. of Iowa) and HRP-conjugated goat anti-human IgG followed by staining with 3-amino-9-ethylcarbazole (AEC). The HIV-1 antigen-positive cells were counted. Experiments were repeated at least three times with each drug concentration in triplicate.

## CC[C@H](CO)Nc1nc(NCc2ccccc2)c2ncn(C(C)C)c2n1 [Seliciclib]
  IC50: 3000 nM
